Cmax data for one compound are collected here from US20240382475A1, “Quinazoline Derivative, Or Preparation Method Therefor And Use Thereof” (Zhejiang Hisun Pharmaceutical Co., Ltd., priority 2021, published 2024).

This data set can be described thus: Pharmacokinetic evaluation in beagle dogs. The note with it: male, dog, in vivo, Oral 2 mg/kg, read-out: Plasma concentration Cmax. On the procedure: Beagle, male, 13 to 14 months old, purchased from Beijing Mas Biotechnology Co., Ltd.
Intravenous injection group: an appropriate amount of the compound to be tested was weighed, and an appropriate amount of DMA:30% Solutol HS-15:Saline=5:5:90 (v/v/v) was added, vortexed, and a solution with a final concentration of 0.5 mg/mL was prepared.
Intragastric administration group: an appropriate amount of the compound to be tested was weighed, and an appropriate amount of DMA:30% Solutol HS-15:Saline=5:5:90 (v/v/v) was added, vortexed, and a solution with a final concentration of 1 mg/mL was prepared.
The beagle dogs were divided into intravenous injection group (3 dogs/group) and intragastric administration group (3 dogs/group) according to the compound to be tested.
Intravenous injection group: dogs were fasted overnight and then administered by intravenous injection (administration dosage was 0.5 mg/kg, and administration volume was 1 mL/kg), and ate 4 hours after administration. […]
Intravenous injection group: about 0.5 mL of blood was collected through jugular vein into EDTA-K2 anticoagulant tubes at 0.083 hour, 0.25 hour, 0.5 hour, 1 hour, 2 hours, 4 hours, 8 hours and 24 hours after administration. […] The collected plasma sample was stored at −40˜−20° C. before analysis. […]

In the case of `COc1cc2nc(C)nc(N[C@H](C)c3cc(N)cc(C(F)(F)F)c3)c2cc1O[C@H]1CCOC1` [BI-3406, reference compound], the Cmax was 180 ± 63.3 ng/mL.
